Source: paper PMC4416881, “Regulation of Active DNA Demethylation by a Methyl-CpG-Binding Domain Protein in Arabidopsis thaliana” (PLoS Genetics, 2015)
These are yes or no findings as the source states them, for the method shown. For part of these data: In cells and extracts the contact can be indirect. Some binding calls cover weakened binding; strength is not graded here. Where a sequence is shown, tags or fusion partners need not be part of it.

T1: IDM2 (yeast two-hybrid fusion) (Arabidopsis thaliana) (UniProt Q8RWL4)
T1 sequence: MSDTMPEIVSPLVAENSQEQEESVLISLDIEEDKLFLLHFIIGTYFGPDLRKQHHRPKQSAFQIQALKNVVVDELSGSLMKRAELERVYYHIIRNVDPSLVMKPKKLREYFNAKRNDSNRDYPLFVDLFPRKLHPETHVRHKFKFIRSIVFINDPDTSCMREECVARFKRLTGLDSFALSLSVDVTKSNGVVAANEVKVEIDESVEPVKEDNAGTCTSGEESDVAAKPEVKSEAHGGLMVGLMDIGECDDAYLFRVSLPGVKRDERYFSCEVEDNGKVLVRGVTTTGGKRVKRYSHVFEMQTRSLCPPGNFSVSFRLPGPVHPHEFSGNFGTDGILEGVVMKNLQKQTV

T2: IDM2 (split-luciferase fusion) (Arabidopsis thaliana) (UniProt Q8RWL4)
T2 sequence: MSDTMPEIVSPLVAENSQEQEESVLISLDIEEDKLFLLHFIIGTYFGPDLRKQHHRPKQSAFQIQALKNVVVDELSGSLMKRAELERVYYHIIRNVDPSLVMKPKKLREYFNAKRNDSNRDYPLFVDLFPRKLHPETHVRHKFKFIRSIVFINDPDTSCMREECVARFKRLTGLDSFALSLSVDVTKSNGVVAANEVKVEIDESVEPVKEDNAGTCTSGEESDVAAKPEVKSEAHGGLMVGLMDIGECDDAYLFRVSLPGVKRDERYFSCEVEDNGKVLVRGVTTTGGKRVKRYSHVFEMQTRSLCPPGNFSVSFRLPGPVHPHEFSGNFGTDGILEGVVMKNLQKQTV

T3: IDL1 (yeast two-hybrid fusion) (Arabidopsis thaliana) (UniProt Q9SYQ0)
T3 sequence: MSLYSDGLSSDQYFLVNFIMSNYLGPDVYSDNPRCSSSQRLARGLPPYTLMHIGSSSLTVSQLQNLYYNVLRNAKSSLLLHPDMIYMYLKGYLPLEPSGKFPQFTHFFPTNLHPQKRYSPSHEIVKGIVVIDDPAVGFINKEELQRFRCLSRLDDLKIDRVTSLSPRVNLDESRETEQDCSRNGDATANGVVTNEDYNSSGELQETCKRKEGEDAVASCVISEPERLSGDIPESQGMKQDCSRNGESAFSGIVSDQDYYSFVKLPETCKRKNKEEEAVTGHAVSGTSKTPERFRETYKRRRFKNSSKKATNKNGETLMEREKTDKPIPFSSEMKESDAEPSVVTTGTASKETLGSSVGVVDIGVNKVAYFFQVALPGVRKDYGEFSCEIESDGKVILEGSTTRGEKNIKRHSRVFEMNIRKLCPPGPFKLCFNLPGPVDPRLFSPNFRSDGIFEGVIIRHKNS

T4: IDM2-GFP (Arabidopsis thaliana) (UniProt Q8RWL4)
T4 sequence: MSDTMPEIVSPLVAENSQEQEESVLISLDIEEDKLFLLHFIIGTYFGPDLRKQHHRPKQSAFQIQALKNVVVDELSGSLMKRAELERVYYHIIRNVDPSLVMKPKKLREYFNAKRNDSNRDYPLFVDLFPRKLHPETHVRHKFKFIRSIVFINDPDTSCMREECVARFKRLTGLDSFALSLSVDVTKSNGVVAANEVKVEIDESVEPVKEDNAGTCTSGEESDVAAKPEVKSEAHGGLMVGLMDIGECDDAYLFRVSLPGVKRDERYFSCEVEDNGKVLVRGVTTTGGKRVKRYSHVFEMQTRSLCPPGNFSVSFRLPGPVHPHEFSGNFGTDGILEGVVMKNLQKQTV

T5: IDL1 (transiently expressed for co-IP) (Arabidopsis thaliana) (UniProt Q9SYQ0)
T5 sequence: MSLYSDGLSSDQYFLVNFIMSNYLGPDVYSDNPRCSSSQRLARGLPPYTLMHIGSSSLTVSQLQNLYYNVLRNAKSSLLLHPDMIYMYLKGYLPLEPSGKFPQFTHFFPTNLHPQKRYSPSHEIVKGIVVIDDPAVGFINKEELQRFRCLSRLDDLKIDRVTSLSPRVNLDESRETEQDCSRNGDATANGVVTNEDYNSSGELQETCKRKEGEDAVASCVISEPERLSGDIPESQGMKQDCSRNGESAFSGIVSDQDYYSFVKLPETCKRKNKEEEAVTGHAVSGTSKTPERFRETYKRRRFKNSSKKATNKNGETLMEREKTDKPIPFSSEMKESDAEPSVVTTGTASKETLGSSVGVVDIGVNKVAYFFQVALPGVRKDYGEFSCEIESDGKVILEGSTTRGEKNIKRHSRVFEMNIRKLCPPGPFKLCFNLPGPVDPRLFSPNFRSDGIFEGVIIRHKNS

T6: IDL1 (split-luciferase fusion) (Arabidopsis thaliana) (UniProt Q9SYQ0)
T6 sequence: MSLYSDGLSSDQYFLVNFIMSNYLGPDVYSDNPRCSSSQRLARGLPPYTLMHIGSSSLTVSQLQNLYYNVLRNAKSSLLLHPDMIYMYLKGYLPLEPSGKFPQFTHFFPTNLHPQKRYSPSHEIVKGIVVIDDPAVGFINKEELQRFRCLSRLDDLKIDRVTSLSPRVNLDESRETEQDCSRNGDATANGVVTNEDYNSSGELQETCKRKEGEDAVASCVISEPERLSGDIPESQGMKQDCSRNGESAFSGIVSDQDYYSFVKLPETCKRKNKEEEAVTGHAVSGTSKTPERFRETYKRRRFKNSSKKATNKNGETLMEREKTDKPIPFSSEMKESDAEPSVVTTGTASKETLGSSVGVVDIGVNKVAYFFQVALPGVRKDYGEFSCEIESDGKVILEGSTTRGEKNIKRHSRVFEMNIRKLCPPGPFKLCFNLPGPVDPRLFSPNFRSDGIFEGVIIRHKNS


Tests used:
[1] = molecular target: T1, IDM2 (yeast two-hybrid fusion) (Arabidopsis thaliana); experiment: two-hybrid; pGBK-T7 (BD) and pGAD-T7 (AD) fusions in yeast AH109; growth on medium lacking Leu, Trp, Ade and His
[2] = molecular target: T2, IDM2 (split-luciferase fusion) (Arabidopsis thaliana); experiment: split reporter; split-luciferase (NLUC / CLUC fusions) co-expressed in N. benthamiana leaves with p19
[3] = molecular target: T3, IDL1 (yeast two-hybrid fusion) (Arabidopsis thaliana); experiment: two-hybrid; pGBK-T7 (BD) and pGAD-T7 (AD) fusions in yeast AH109; growth on medium lacking Leu, Trp, Ade and His
[4] = molecular target: T4, IDM2-GFP (Arabidopsis thaliana); experiment: co-IP; proteins transiently co-expressed in N. benthamiana leaves; GFP-Trap A or anti-c-Myc agarose, 4 h; Western blot
[5] = molecular target: T5, IDL1 (transiently expressed for co-IP) (Arabidopsis thaliana); experiment: as above
[6] = molecular target: T6, IDL1 (split-luciferase fusion) (Arabidopsis thaliana); experiment: split reporter; split-luciferase (NLUC / CLUC fusions) co-expressed in N. benthamiana leaves with p19

binding [1] | binding [2] | Binder | other results
binds | – | MBD7 (yeast two-hybrid fusion) (protein, UniProt Q9FJF4 1-306) MQTRSSSSPSANHRRETQLQIADPTSFCGKIMPGWTVVNRPRSSNNGVVDTYFIEPGTGRQFSSLEAIHRHLAGEVNDRRLTRAGSFFQDKTRVYEGSRTKQDHCGVEYASKGFRLPRGWSVEEVPRKNSHYIDKYYVERKTGKRFRSLVSVERYLRESRNSIEQQLRVLQNRRGHSKDFRLPDGWIVEEKPRRSSSHIDRSYIEPGTGNKFRSMAAVERYLISVGNITLDSVSMVHSERLPLLMNRNGIRFQSEVIDPNPPKKVKWVLTGSGGNMFTANVRGSNVSSLVKHTWSEAFVSLIEDRS | binding [3]: binds
– | binds | MBD7 (split-luciferase fusion) (protein, UniProt Q9FJF4 1-306) MQTRSSSSPSANHRRETQLQIADPTSFCGKIMPGWTVVNRPRSSNNGVVDTYFIEPGTGRQFSSLEAIHRHLAGEVNDRRLTRAGSFFQDKTRVYEGSRTKQDHCGVEYASKGFRLPRGWSVEEVPRKNSHYIDKYYVERKTGKRFRSLVSVERYLRESRNSIEQQLRVLQNRRGHSKDFRLPDGWIVEEKPRRSSSHIDRSYIEPGTGNKFRSMAAVERYLISVGNITLDSVSMVHSERLPLLMNRNGIRFQSEVIDPNPPKKVKWVLTGSGGNMFTANVRGSNVSSLVKHTWSEAFVSLIEDRS | binding [6]: binds
binds | – | MBD6 (yeast two-hybrid fusion) (protein, UniProt Q9LTJ1 1-225) MSDSVAGDFPPDPLLASGAFISSAGDGTLDSSAKRRPIQGGIGISGSGESVRIGMANGTDQVNHQTESKSRKRAAPGDNWLPPGWRVEDKIRTSGATAGSVDKYYYEPNTGRKFRSRTEVLYYLEHGTSKRGTKKAENTYFNPDHFEGQGSNRVTRTATVPPPPPPPLDFDFKNPPDKVSWSMANAGEEGWIPNIGDVKVQDSVRRDWSTAFTFITSRNPSKVSA | binding [3]: binds
– | binds | MBD6 (split-luciferase fusion) (protein, UniProt Q9LTJ1 1-225) MSDSVAGDFPPDPLLASGAFISSAGDGTLDSSAKRRPIQGGIGISGSGESVRIGMANGTDQVNHQTESKSRKRAAPGDNWLPPGWRVEDKIRTSGATAGSVDKYYYEPNTGRKFRSRTEVLYYLEHGTSKRGTKKAENTYFNPDHFEGQGSNRVTRTATVPPPPPPPLDFDFKNPPDKVSWSMANAGEEGWIPNIGDVKVQDSVRRDWSTAFTFITSRNPSKVSA | binding [6]: binds

Continued, binder first:

Binder | binding [1] | binding [2] | other results
IDL1 (yeast two-hybrid fusion) (protein, UniProt Q9SYQ0 1-463) MSLYSDGLSSDQYFLVNFIMSNYLGPDVYSDNPRCSSSQRLARGLPPYTLMHIGSSSLTVSQLQNLYYNVLRNAKSSLLLHPDMIYMYLKGYLPLEPSGKFPQFTHFFPTNLHPQKRYSPSHEIVKGIVVIDDPAVGFINKEELQRFRCLSRLDDLKIDRVTSLSPRVNLDESRETEQDCSRNGDATANGVVTNEDYNSSGELQETCKRKEGEDAVASCVISEPERLSGDIPESQGMKQDCSRNGESAFSGIVSDQDYYSFVKLPETCKRKNKEEEAVTGHAVSGTSKTPERFRETYKRRRFKNSSKKATNKNGETLMEREKTDKPIPFSSEMKESDAEPSVVTTGTASKETLGSSVGVVDIGVNKVAYFFQVALPGVRKDYGEFSCEIESDGKVILEGSTTRGEKNIKRHSRVFEMNIRKLCPPGPFKLCFNLPGPVDPRLFSPNFRSDGIFEGVIIRHKNS | binds | – | –
IDL1 (split-luciferase fusion) (protein, UniProt Q9SYQ0 1-463) MSLYSDGLSSDQYFLVNFIMSNYLGPDVYSDNPRCSSSQRLARGLPPYTLMHIGSSSLTVSQLQNLYYNVLRNAKSSLLLHPDMIYMYLKGYLPLEPSGKFPQFTHFFPTNLHPQKRYSPSHEIVKGIVVIDDPAVGFINKEELQRFRCLSRLDDLKIDRVTSLSPRVNLDESRETEQDCSRNGDATANGVVTNEDYNSSGELQETCKRKEGEDAVASCVISEPERLSGDIPESQGMKQDCSRNGESAFSGIVSDQDYYSFVKLPETCKRKNKEEEAVTGHAVSGTSKTPERFRETYKRRRFKNSSKKATNKNGETLMEREKTDKPIPFSSEMKESDAEPSVVTTGTASKETLGSSVGVVDIGVNKVAYFFQVALPGVRKDYGEFSCEIESDGKVILEGSTTRGEKNIKRHSRVFEMNIRKLCPPGPFKLCFNLPGPVDPRLFSPNFRSDGIFEGVIIRHKNS | – | binds | –
Flag-tagged MBD7 (protein, UniProt Q9FJF4 1-306) MQTRSSSSPSANHRRETQLQIADPTSFCGKIMPGWTVVNRPRSSNNGVVDTYFIEPGTGRQFSSLEAIHRHLAGEVNDRRLTRAGSFFQDKTRVYEGSRTKQDHCGVEYASKGFRLPRGWSVEEVPRKNSHYIDKYYVERKTGKRFRSLVSVERYLRESRNSIEQQLRVLQNRRGHSKDFRLPDGWIVEEKPRRSSSHIDRSYIEPGTGNKFRSMAAVERYLISVGNITLDSVSMVHSERLPLLMNRNGIRFQSEVIDPNPPKKVKWVLTGSGGNMFTANVRGSNVSSLVKHTWSEAFVSLIEDRS | – | – | binding [4]: binds; binding [5]: binds
